According to patent publication US20230159649A1, “METHODS AND COMBINATIONS FOR DUAL TARGETING OF TNF FAMILY MEMBERS” (La Jolla Institute for Immunology, priority 2020, published 2023):
Some of these results come from one statement about several compounds together.

Test system: normal human epidermal keratinocytes
Test: Human epidermal keratinocytes stimulated with rLIGHT or rTL1A
Format: cell-based
Description: FIG. 2A-FIG. 2C illustrate LTβR, HVEM, and DR3 are co-expressed or active in lung epithelial cells and fibroblasts, and keratinocytes and dermal fibroblasts. Cultured normal human bronchial epithelial cells and lung fibroblasts, and epidermal keratinocytes and dermal fibroblasts, were stained for expression of (FIG. 2A) LTβR and HVEM, (FIG. 2B) DR3 (isotype controls, gray), or (FIG. 2C) p-p65/RelA NF-κB after culture with 25 ng/ml rTL1A or PBS. Data representative of 2-4 experiments each.
Experimental Design: 1.1. LIGHT and TL1A co-operate to promote hyperplasia and inflammatory features in human keratinocytes: Firstly, the inventors test how signaling from LIGHT and TL1A directly regulate keratinocytes in vitro. Studies are performed with titrated doses of rLIGHT or rTL1A (0.1-100 ng/ml) vs. PBS, added to normal human epidermal keratinocytes from a minimum of 4 donors (obtained from Lonza) with kinetic analyses, as described previously (7, 8). LIGHT and TL1A have maximal activity in the range 20-100 ng/ml, similar to IL-13 or IL-17. […] The inventors control for specificity with siRNA knockdown of DR3, and then determine synergistic or additive activities, cross-titrating rLIGHT together with rTL1A and measure the extent of cell division and growth. The inventors also test if co-operation is at the level of the receptors (e.g. TL1A enhances expression of the LIGHT receptors).

**Q.** Which “concentration range of maximal activity” value does the source give for “rTL1A: recombinant TL1A (TNFSF15) protein [reference compound]” here?
**A.** 20 to 100 ng/mL

B1: rLIGHT: recombinant LIGHT (TNFSF14) protein (protein)
chain: DGPAGSWEQLIQERRSHEVNPAAHLTGANSSLTGSGGPLLWETQLGLAFLRGLSYHDGALVVTKAGYYYIYSKVQLGGVGCPLGLASTITHGLYKRTPRYPEELELLVSQQSPCGRATSSSRVWWDSSFLGGVVHLEAGEKVVVRVLDERLVRLRDGTRSYFGAFMV
**Q.** Which “concentration range of maximal activity” value does the source give for B1 here?
**A.** 20 to 100 ng/mL
